Patent US12053527B2, “Compositions with permeation enhancers for drug delivery” (priority 2015, dated 2024)

Experiment: Pharmacokinetics in the OM model: ciprofloxacin in middle ear fluid and plasma
Type: in vivo, chinchilla
Conditions: blood obtained in the transverse sinus

## O=C(O)c1cn(C2CC2)c2cc(N3CCNCC3)c(F)cc2c1=O [ciprofloxacin]
  ciprofloxacin in plasma samples: undetectable
